Test results taken from patent US7759345B2, “Antitumoral derivatives of ET-743” (priority 2001, dated 2010).
At least one structure is not confirmed: it was looked up by name or label, or the drawing left a doubt.

Key:
Type in all cases: cell-based
SK-OV-3 = test: Inhibition of cells growth by colorimetric assay (SRB), SK-OV-3; conditions: SK-OV3, 48 hours exposure, read-out: LC50 SK-OV3
Method: (§1) 2°.—Inhibition of Cells Growth by Colorimetric Assay.
(§2) A colorimetric type of assay, using sulforhodamine B (SRB) reaction has been adapted for a quantitative measurement of cell growth and viability [following the technique described by Philip Skehan, et al. (1990), New colorimetric cytotoxicity assay for anticancer drug screening, J. Natl. Cancer Inst., 82:1107-1112]
(§3) This form of the assay employs 96 well cell culture microplates of 9 mm diameter (Faircloth, 1988; Mosmann, 1983). Most of the cell lines are obtained from American Type Culture Collection (ATCC) derived from different human cancer types. […]
(§4) Cells are seeded in 96 well microtiter plates, at 5×10^3 cells per well in aliquots of 195 μl medium, and they are allowed to attach to the plate surface by growing in drug free medium for 18 hours. […] After 48 hours exposure, the antitumor effect are measured by the SRB methodology: cells are fixed by adding 50 μl of cold 50% (wt/vol) trichloroacetic acid (TCA) and incubating for 60 minutes at 4° C. […] Optical densities are read on a automated spectrophotometric plate reader at a single wavelength of 490 nm.
(§5) The values for mean+/−SD of data from triplicate wells are calculated. Some parameters for cellular responses can be calculated: GI=growth inhibition, TGI=total growth inhibition (cytostatic effect) and LC=cell killing (cytotoxic effect). […]

HMEC1 = test: Inhibition of cells growth by colorimetric assay (SRB), HMEC1; conditions: HMEC-1, 48 hours exposure, read-out: LC50 HMEC-1
Method: as §1, §2, §3, §4, §5

LoVo-Dox = test: Inhibition of cells growth by colorimetric assay (SRB), LoVo-Dox; conditions: 48 hours exposure, read-out: LC50 LOVO-DOX
Method: as §1, §2, §3, §4, §5

Measured: CC50

C=COC(=O)Oc1cc2c(cc1OC)[C@@]1(CS[C@@H]3c4c(OC(C)=O)c(C)c5c(c4[C@H](COC1=O)N1C3[C@H]3c4c(cc(C)c(OC)c4O)C[C@@H]([C@@H]1O)N3C)OCO5)NCC2 (stereo partly drawn) [Compound 75]
12 µM: all assays above
